These are yes or no findings as the source states them, for the method shown. Some binding calls cover weakened binding; strength is not graded here.
Biological target: mPD-L1 (mouse) (UniProt Q9EP73)
Experiment: competitive ELISA: mPD-L1 pre-incubated with AFFIMER, added to coated PD-1, bound PD-L1 detected

Protein sequences, listed by entry. Tags and fused reporters are not part of them.
UniProt Q9EP73: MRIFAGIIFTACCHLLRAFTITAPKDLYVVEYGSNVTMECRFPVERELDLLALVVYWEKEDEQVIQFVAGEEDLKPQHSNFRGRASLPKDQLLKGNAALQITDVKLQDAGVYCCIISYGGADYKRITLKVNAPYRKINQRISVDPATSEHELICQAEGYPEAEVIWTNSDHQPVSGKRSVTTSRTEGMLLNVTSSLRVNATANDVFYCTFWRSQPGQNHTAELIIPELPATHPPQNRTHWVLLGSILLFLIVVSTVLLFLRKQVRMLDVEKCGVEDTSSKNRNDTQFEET

B1: AVA04-182 XT20 (designed binder)
chain: MIPRGLSEAKPATPEIQEIVDKVKPQLEEKTNETYGKLEAVQYKTQVLAFALPEFEYMSTNYYIKVRAGDNKYMHLKVFNGPPMIRRKNEVADRVLTGYQVDKNKDDELTGFAEAAAKEAAAKEAAAKEAAAKEAAAKEAAAKMIPRGLSEAKPATPEIQEIVDKVKPQLEEKTNETYGKLEAVQYKTQVLAFALPEFEYMSTNYYIKVRAGDNKYMHLKVFNGPPMIRRKNEVADRVLTGYQVDKNKDDELTGFAEAAAKEAAAKEAAAKEAAAKEAAAKEAAAKMIPRGLSEAKPATPEIQEIVDKVKPQLEEKTNETYGKLEAVQYKTQVLANFFQRRWPGSTNYYIKVRAGDNKYMHLKVFNGPWKFRNTDRGADRVLTGYQVDKNKDDELTGFHHHHHH
binding: binds

Source: patent publication US20230272081A1 (AVACTA LIFE SCIENCES, published 2023)
